Some results were stated once for a whole list of compounds, not compound by compound.
What was measured:
[1] = humans, known values; cited from earlier work
[2] = Stability of analytes in rat and dog EDTA plasma and whole blood; format: in vitro ADME

Compound | absorbed [1] | stable in autosampler after processing ([2]; 4° C., processed plasma sample) | stable in EDTA plasma prior to processing ([2]; rat and dog EDTA plasma, room temperature) | stable through freeze-thaw cycles ([2]; rat and dog plasma) | stable in fresh EDTA whole blood ([2]; rat and dog whole blood, room temperature) | stable in plasma on frozen storage ([2]; −20° C. or lower, rat and dog plasma)
CC(=O)Nc1ccc(O)cc1 [acetaminophen, reference compound] | at least 90% |  |  |  |  | 
CC1=NC(/C=C/[C@@H]2C[C@@H](O)[C@](C)(O)CCC[C@H](C)[C@H](O)[C@@H](C)C(=O)C(C)(C)[C@@H](O)CC(=O)N2)CS1 (stereo partly drawn) [Compound (B)] |  | at least 24 h | at least 4 h | at least 3 freeze-thaw cycles | at least 0.5 h | at least 5 weeks

— USRE40387E1, “Pharmaceutical compositions, dosage forms and methods for oral administration of epothilones” (Bristol-Myers Squibb Company, priority 2001, dated 2008)
